Measured values reported in patent US10233209B2, “Inhibitors of the farnesoid x receptor and uses in medicine” (The United States of America, as represented by the …, priority 2013, dated 2019).
“Also recorded” adds a separate entry of the source.

Experiments:
Format in all cases: in vivo, mouse
[1] = test system: HFD-treated C57BL/6N mice; test: Gly-MCA in mice fed a high-fat diet (prevention of obesity, insulin resistance, NAFLD); settings: HFD 9 weeks
Source text: (§1) High-fat diet (HFD) (60% kcal consisting of fat) was purchased from Bioserv. […] Fxr^fl/fl and Fxr^ΔIE (Kim et al., J. Lipid Res. 48:2664-2672, 2007) mice were backcrossed with C57BL/6N mice for over 10 generations. For the antibiotic (the combination of bacitracin, neomycin, and streptomycin) study, male C57BL/6N mice from 6 weeks of age were fed a high-fat diet (“HFD) and administered 0.1% (w/v) of each compound (the combination of bacitracin, neomycin, and streptomycin) in the drinking water. […] For TβMCA in vivo, male C57BL/6N mice from 6 weeks of age were fed a HFD and treated with the antibiotics (0.1% of each compound of bacitracin, neomycin, and streptomycin combination) for 3 days. Vehicle (saline), TCA (400 mg/kg body weight, dissolved in saline) or a combination of TCA and TβMCA (400 mg/kg body weight of each compound, dissolved in saline) were orally administered to the mice and followed by a second dose 12 h later. The mice were killed 2 h later for tissue collection. For the Gly-MCA study, Gly-MCA was custom synthesized. Bacon-flavored dough pills were produced as described (Walker et al., Toxicol. Appl. Pharmacol. 260:65-69, 2012) for oral administration of Gly-MCA (0.25 mg Gly-MCA/pill, dose of 10 mg/kg). Mice were trained to eat the dough pills prior to the study. For the prevention of obesity, insulin resistance and NAFLD, male wild-type (WT) C57BL/6N mice, 6- to 8-weeks-old, were fed a high-fat diet (Bio-Serv, Frenchtown, N.J.; 60 kcal % fat) from the age of 6 weeks and were orally administered with vehicle (control pills) or Gly-MCA (0.25 mg/pill/day, dose 10 mg/kg). C57BL/6N mice fed a high-fat diet for 12 weeks were administered (0.25 mg Gly-MCA/pill, dose of 5 mg/kg). Leptin-deficient db/db mice, 6- to 8-weeks-old, fed a chow diet, were administered Gly-MCA (0.25 mg/pill/day, 10 mg/kg). Mice were housed individually in their home cages. Cumulative food intake and TEEbal were measured for 1 week in vehicle and Gly-MCA-treated mice from 6 to 7 weeks of HFD. TEEbal was measured as previously described (Ravussin et al., Int. J. Obesity 37:399-403, 2013).
The mucosa of intestine was gently scraped and liver was taken and both were flash frozen in liquid nitrogen and stored at −80° C. until RNA was prepared. RNA was extracted from frozen intestine and liver using TRIzol reagent (Invitrogen, Carlsbad, Calif.). cDNA was synthesized from 1 μg total RNA using Superscript II reverse transcriptase (Invitrogen, Carlsbad, Calif.). qPCR primers were designed with qPrimerDepot. Measured mRNA levels were normalized to those of 18S ribosomal RNA and expressed as fold change relative to those of control group.
Lipidomics analysis: For serum lipidomics analysis 25 μl serum were extracted by 4-fold cold chloroform:methanol (2:1) solution containing 2 μM LPC (17:0), PC (17:0), SM (17:0) and CER (17:0) (Avanti Polar Lipids, Alabaster, Ala.) as internal standards. The samples were vortexed for 30 s and then allowed to stand for 5 min at room temperature. The mixture was centrifuged at 13,000 rpm for 5 min and then the lower organic phase was collected and evaporated at room temperature under vacuum. The residue was dissolved in chloroform:methanol (1:1), followed by diluting with isopropanol:acetonitrile:H2O (2:1:1) containing 2 μM PC (17:0) prior to UPLC-MS analysis. For tissue lipidomics analysis, about 50 mg of accurately weighted tissues were homogenized with 700 μL methanol: H2O (4:3) solution and then extracted using 800 μL chloroform containing 2 μM LPC (17:0), SM (17:0) and CER (17:0) as internal standards. The homogenate was incubated at 37° C. for 20 min followed by centrifuged for 20 min at 13,000 rpm. The lower organic phase was transferred to a new tube and dried under vacuum. The residue was suspended with 100 chloroform:methanol (1:1) solution and then diluted with isopropanol:acetonitrile:H2O (2:1:1) solution containing 2 μM PC (17:0) before injection. […]

[2] = test system: db/db mice; test: Gly-MCA in leptin receptor-deficient (db/db) mice
Source text: as §1

[3] = test system: HFD-induced obese mice; test: Gly-MCA in C57BL/6N mice made obese by 12 weeks of high-fat diet; settings: 5 mg/kg, 6 weeks
Source text: High-fat diet (HFD) (60% kcal consisting of fat) was purchased from Bioserv. […] Fxr^fl/fl and Fxr^ΔIE (Kim et al., J. Lipid Res. 48:2664-2672, 2007) mice were backcrossed with C57BL/6N mice for over 10 generations. For the antibiotic (the combination of bacitracin, neomycin, and streptomycin) study, male C57BL/6N mice from 6 weeks of age were fed a high-fat diet (“HFD) and administered 0.1% (w/v) of each compound (the combination of bacitracin, neomycin, and streptomycin) in the drinking water. […] For TβMCA in vivo, male C57BL/6N mice from 6 weeks of age were fed a HFD and treated with the antibiotics (0.1% of each compound of bacitracin, neomycin, and streptomycin combination) for 3 days. Vehicle (saline), TCA (400 mg/kg body weight, dissolved in saline) or a combination of TCA and TβMCA (400 mg/kg body weight of each compound, dissolved in saline) were orally administered to the mice and followed by a second dose 12 h later. The mice were killed 2 h later for tissue collection. For the Gly-MCA study, Gly-MCA was custom synthesized. […] Cumulative food intake and TEEbal were measured for 1 week in vehicle and Gly-MCA-treated mice from 6 to 7 weeks of HFD. TEEbal was measured as previously described (Ravussin et al., Int. J. Obesity 37:399-403, 2013).

[4] = test system: gut microbiome; test: gut microbiome composition (16S rRNA gene sequencing, qPCR)
[5] = lipidomics: ceramides and free fatty acids in serum and ileum; settings: HFD 14 weeks
[6] = 1H NMR-based metabolomics of cecal contents and liver; settings: vs vehicle
[7] = db/db section of text, vs vehicle
[8] = normal chow diet, 5 days tempol by gavage 250 mg/kg
[9] = wild-type mice on high-fat diet

C[C@H](CCC(=O)NCC(=O)O)[C@H]1CC[C@H]2[C@@H]3[C@@H](O)[C@@H](O)[C@@H]4C[C@H](O)CC[C@]4(C)[C@H]3CC[C@]12C [Gly-MCA, glycine-β-muricholic acid]
TCA levels in feces [1]: significantly decreased | ileum C16:0, C18:1, and C24:0 ceramides levels [1]: reduced | levels of T-β-MCA in feces [1]: significantly increased | levels of TβMCA in the ileum [1]: significantly increased | levels of taurine-conjugated bile acids in the ileum [1]: increased | serum C16:0, C20:0, C22:0, and C24:1 ceramides levels [1]: reduced | levels of T-α-MCA and TβMCA in feces ([2]; db/db mice, 6 weeks): significantly increased | levels of T-α-MCA and TβMCA in ileum ([2]; db/db mice, 6 weeks): significantly increased | ileum C16:0, C18:0, C18:1, C20:0, C22:0, C24:0 and C24:1 ceramides levels [2, 7]: reduced | serum C16:0, C20:0, C22:0, and C24:1 ceramides levels [2, 7]: reduced | levels of TαMCA and TβMCA in feces [3]: significantly enhanced

CC1(C)CC(O)CC(C)(C)N1[O] [tempol, 4-hydroxy-2,2,6,6,-tetramethylpiperidine-1-oxyl]
Firmicutes abundance in cecal communities ([4]; HFD 12 weeks): significantly decreased | Proteobacteria abundance in cecal communities ([4]; HFD 12 weeks): markedly increased | genus Bacteroides and Streptococcus levels in cecum content ([4]; HFD 12 weeks): remained similar | genus Clostridium sensu stricto and Lactobacillus levels in cecum content ([4]; HFD 12 weeks): significantly decreased | genus Desulfovibrio in cecum content ([4]; HFD 12 weeks): major contributor of the increased Proteobacteria | genus Roseburia in cecum content ([4]; HFD 12 weeks): dramatic increase | genus Lactobacillus of the Lactobacillaceae (feces) ([4]; coincident with BSH activity, FIGS. 17A and B): decreased | Firmicutes / Bacteroidetes (qPCR of fecal microbes) ([4]; mice on a high fat diet): shift from Firmicutes to Bacteroidetes | total bacteria (qPCR of fecal microbes) ([4]; mice on a high fat diet): remain unchanged | family Lactobacillaceae (16S rRNA heat map) [4, 8]: dramatically decreased | genus Lactobacillus [4, 8]: robustly reduced | phylum-level gut microbiome composition in cecum ([4]; normal chow diet, 5 days tempol by gavage 250 mg/kg, 250 mg/kg): shift from Firmicutes to Bacteroidetes; also recorded: Significant phylum-level shifts from Firmicutes to Bacteroidetes | ileum and serum C16:0, C18:0, C20:0, C22:0, C24:0 and C24:1 ceramide levels ([5]; Fxr^fl/fl mice): significantly decreased | ileum and serum C16:0, C18:0, C20:0, C22:0, C24:0 and C24:1 ceramide levels ([5]; Fxr^ΔIE mice): but not in Fxr^ΔIE mice | levels of SCFAs (acetate, propionate, butyrate) in cecal contents [6, 9]: significantly decreased | levels of oligosaccharides and glucose in cecal contents [6, 9]: significantly elevated | liver levels of glucose, glycogen, bile acids, nucleotide metabolites, nicotinurate, choline ([6]; wild-type mice): significantly elevated
